Experiment [1] concerns the target human serum albumin (human) (UniProt P02768). Description: SEC; size-exclusion HPLC (Yarra SEC-2000) of human plasma spiked with peptide after 10 min at 37 °C; 25 mM NaH2PO4 + 25 mM Na2HPO4 + 250 mM KCl, pH 6.65; fractions treated with DTT + GuHCl and peptide detected by mass spectrometry; HSA and free peptides run as references; only the binder purified.
In experiment [2] the target is C-X-C chemokine receptor type 4 (human (endogenous in SupT1)) (UniProt P61073). In words: flow cytometry on cells; competition with APC-labeled antibody 12G5 (ECL2 of CXCR4) on SupT1 cells; serial dilution of compound in PBS with a constant concentration of antibody, 2 h at 4 °C; only the binder purified.
In experiment [3] the target is human serum albumin (human) (UniProt P02768). In words: LC-MS/MS of a tryptic digest (disulfide-linked fragments); human plasma spiked with peptide, digested with trypsin (50:1) 16 h at 37 degrees; half of the digest reduced and carbamidomethylated as control; only the binder purified.
Experiment [4] shares this target. In words: condition: only after reduction + carbamidomethylation of the digest; LC-MS/MS of a tryptic digest (disulfide-linked fragments); human plasma spiked with peptide, digested with trypsin (50:1) 16 h at 37 degrees; half of the digest reduced and carbamidomethylated as control; only the binder purified.
Experiment [5] concerns the target C-X-C chemokine receptor type 4 (human (endogenous in SupT1)) (UniProt P61073). In words: flow cytometry on cells; compound dissolved at 20 µM in 100% human plasma, incubated at 37 °C, aliquots serially diluted in ice-cold PBS, then competition with antibody 12G5 on SupT1 cells. For orientation: In flow cytometry, cells or beads pass a laser one at a time.

Chains of the proteins cited; added tags and fusions are not shown. Residues count along the entry.
UniProt P02768, residues 25-609: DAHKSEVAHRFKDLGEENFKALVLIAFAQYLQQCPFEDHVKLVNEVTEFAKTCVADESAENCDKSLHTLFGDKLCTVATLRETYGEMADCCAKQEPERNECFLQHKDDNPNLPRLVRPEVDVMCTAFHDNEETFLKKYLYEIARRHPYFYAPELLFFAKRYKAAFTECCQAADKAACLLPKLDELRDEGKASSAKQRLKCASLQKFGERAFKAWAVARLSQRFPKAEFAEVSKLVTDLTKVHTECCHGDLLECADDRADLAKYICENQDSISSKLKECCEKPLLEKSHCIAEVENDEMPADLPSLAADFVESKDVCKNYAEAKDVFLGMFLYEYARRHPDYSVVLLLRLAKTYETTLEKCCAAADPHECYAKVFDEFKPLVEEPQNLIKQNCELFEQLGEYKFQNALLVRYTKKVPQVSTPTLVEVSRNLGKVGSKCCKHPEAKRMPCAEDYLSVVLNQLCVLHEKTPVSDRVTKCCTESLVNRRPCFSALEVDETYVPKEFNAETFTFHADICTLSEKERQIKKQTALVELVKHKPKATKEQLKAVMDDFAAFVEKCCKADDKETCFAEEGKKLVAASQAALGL
UniProt P61073: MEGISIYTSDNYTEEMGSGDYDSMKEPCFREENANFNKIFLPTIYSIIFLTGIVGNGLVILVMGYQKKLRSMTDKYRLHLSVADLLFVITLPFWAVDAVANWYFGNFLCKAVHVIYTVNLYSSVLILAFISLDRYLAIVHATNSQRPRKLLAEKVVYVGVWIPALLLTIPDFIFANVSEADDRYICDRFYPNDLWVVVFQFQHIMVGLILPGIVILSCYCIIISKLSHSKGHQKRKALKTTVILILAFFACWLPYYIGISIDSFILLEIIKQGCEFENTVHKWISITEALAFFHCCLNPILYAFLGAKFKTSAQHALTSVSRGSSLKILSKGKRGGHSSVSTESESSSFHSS

These are yes or no findings as the source states them, for the method shown. Some binding calls cover weakened binding; strength is not graded here.

For IVRWSKKVPCVS [EPI-X4 WSC02], the binding entry was “binds” in experiment [1]; “binds” in experiment [2]; “binds” in experiment [3]; “no binding” in experiment [4]; “binds” in experiment [5].

For IVRWSKKVPSVS [EPI-X4 WSC02 C10S], the binding result in experiment [2] is reported as “binds”.

Turning to ILRWSRKLPCVS [EPI-X4 JM#21], the binding result is given as “binds” in experiment [1]; “binds” in experiment [2]; “binds” in experiment [3]; “no binding” in experiment [4]; “binds” in experiment [5].

On to ILRWSRKLPCVS (carbamidomethylated Cys at position 10) [EPI-X4 JM#21 Cdm], for which the binding entry in experiment [2] was “binds”.

ILRWSRKLPSVS [EPI-X4 JM#21 C10S]: the binding entry in experiment [2] was “binds”.

In the case of IVRWSKKVPCVS (carbamidomethylated Cys at position 10) [EPI-X4 WSC02 Cdm], the binding entry in experiment [2] is recorded as “binds”.

These data come from paper PMC9735595, “Advanced EPI-X4 Derivatives Covalently Bind Human Serum Albumin Resulting in Prolonged Plasma Stability” (International Journal of Molecular Sciences, 2022).
